Experimental data as given in doi:10.1101/459065.
Read-outs that look alike come from different tables or passages of the source. Results are given in words; binding and its absence hold for the method and conditions named. Binding can be weak; no strength is given.

By UniProt entry, the sequences of proteins in these tests, tags left out. Where a name states a change or a piece, a line headed by the entry shows the natural chain unless it says otherwise.
UniProt P04118: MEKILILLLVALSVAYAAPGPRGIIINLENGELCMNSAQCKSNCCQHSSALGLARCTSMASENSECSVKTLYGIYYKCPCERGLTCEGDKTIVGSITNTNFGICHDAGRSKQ

Tests used:
CLPS [1] = target: CLPS (UniProt P04118); assay: pull-down
CLPS [2] = target: CLPS (UniProt P04118); assay: pull-down; remark: listed apart in the source

binding (CLPS [1]): binds | binding (CLPS [2]): binds
B1: CUTA (protein, UniProt O60888 33-179)
chain: RLLLLPRVLLTMASGSPPTQPSPASDSGSGYVPGSVSAAFVTCPNEKVAKEIARAVVEKRLAACVNLIPQITSIYEWKGKIEEDSEVLMMIKTQSSLVPALTDFVRSVHPYEVAEVIALPVEQGNFPYLQWVRQVTESVSDSITVLP
